# Test results as given in the supplement of paper PMC8728848.
# This is one part of the list.
# B1: GS7807F-bth-514-18-514 (Bacteroides thetaiotaomicron) (protein)
# chain: AGSCTGNFEEYNTNQFQIHEADPSTLMKSMIETIVNIQQNDSQMMDQMVGQLGGYLTCANVWSGTNFGTFNQSDAWNAGPWNTNFEKIYGNFFQIQEATNESGHYYAFARMIRAITMLRVADCYGPMPYSQVKKGNFYVAYDTEEQVYKNIMEDFASAANVLYNYYKDTNGNAPLASNDPVFSGNYANWARLANSMRLRVAIRISTAYPEMAKENAEAAASHEAGLIEANNDNAMMDCGSQTNPYQLAAVSWGDLRVNANIVDYMNGYGDPRMSKYFNHSTFTGHTQEYVGMRSGEDGFAKSDVAGYSIPAITGTSKLLVFCAAETAFLRAEGKLKNWSVGNKSAKEYYEEGIKLSMEQYGTTMPDNYLTNTEKPTVSHNNDPRGHAYTISNTVAVAWNDNNEEENLQRIITQKWIANYPLGLEAWAEYRRTGYPELYPCIDNLSPSGVDSKRGMRRLRFPYTEVQNNHSNYQQGVSYLKNGGPDNEATDLSWGKTN
# Assays:
# Experiment in all cases: glycan array binding signal (z-score within array); higher = stronger binding
# Conditions in all cases: glycan notation: IUPAC condensed, linker removed
# [1] = target: Fuc(a1-3)[Gal(b1-4)]GlcNAc(b1-3)Gal(b1-4)[Fuc(a1-3)]GlcNAc
# Outline: (§1)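 The binding signal is a Z-score computed within each array and averaged over linkers. Arrays of the same protein sequence at different concentrations or buffers were also averaged together. Data originate from 3228 arrays in the Consortium for Functional Glycomics database, kept only where the protein sequence was available.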
# [2] = target: Fuc(a1-3)[Gal(b1-4)]GlcNAc(b1-3)Gal(b1-4)[Fuc(a1-3)]GlcNAc(b1-3)Gal(b1-4)[Fuc(a1-3)]GlcNAc
# Outline: as §1
# [3] = target: Fuc(a1-3)[Gal(b1-4)]GlcNAc(b1-3)GalNAc
# Outline: as §1
# [4] = target: Fuc(a1-3)[Gal(b1-4)]GlcNAc(b1-6)GalNAc
# Outline: as §1
# [5] = target: Fuc(a1-3)[Gal(b1-4)]GlcNAc(b1-6)[Gal(b1-3)GlcNAc(b1-3)]Gal(b1-4)Glc
# Outline: as §1
# [6] = target: Fuc(a1-3)[Gal(b1-4)]GlcNAc6S
# Outline: as §1
# [7] = target: Fuc(a1-3)[Gal3S(b1-4)]Glc
# Outline: as §1
# [8] = target: Fuc(a1-3)[Gal3S(b1-4)]GlcNAc
# Outline: as §1
# [9] = target: Fuc(a1-3)[Gal3S(b1-4)]GlcNAc6S
# Outline: as §1
# [10] = target: Fuc(a1-3)[GalNAc(b1-4)]GlcNAc
# Outline: as §1
# [11] = target: Fuc(a1-3)[GalNAc(b1-4)]GlcNAc6S
# Outline: as §1
# Fuc(a1-4)GlcNAc = target: Fuc(a1-4)GlcNAc
# Outline: as §1
# Fuc(b1-3)GlcNAc = target: Fuc(b1-3)GlcNAc
# Outline: as §1
# Gal(a1-2)Gal = target: Gal(a1-2)Gal
# Outline: as §1
# Gal(a1-3)Gal = target: Gal(a1-3)Gal
# Outline: as §1
# Gal(a1-3)Gal(b1-3)GlcNAc = target: Gal(a1-3)Gal(b1-3)GlcNAc
# Outline: as §1
# [12] = target: Gal(a1-3)Gal(b1-3)GlcNAc(b1-2)Man
# Outline: as §1
# [13] = target: Gal(a1-3)Gal(b1-3)GlcNAc(b1-2)Man(a1-3)[Gal(a1-3)Gal(b1-3)GlcNAc(b1-2)Man(a1-6)]Man(b1-4)GlcNAc(b1-4)GlcNAc
# Outline: as §1
# [14] = target: Gal(a1-3)Gal(b1-3)GlcNAc(b1-3)GalNAc
# Outline: as §1
# [15] = target: Gal(a1-3)Gal(b1-3)GlcNAc(b1-6)GalNAc
# Outline: as §1
# [16] = target: Gal(a1-3)Gal(b1-3)[Fuc(a1-4)]GlcNAc(b1-2)Man(a1-3)[Gal(a1-3)Gal(b1-3)[Fuc(a1-4)]GlcNAc(b1-2)Man(a1-6)]Man(b1-4)GlcNAc(b1-4)GlcNAc
# Outline: as §1
# Gal(a1-3)Gal(b1-4)Glc = target: Gal(a1-3)Gal(b1-4)Glc
# Outline: as §1
# Gal(a1-3)Gal(b1-4)GlcNAc = target: Gal(a1-3)Gal(b1-4)GlcNAc
# Outline: as §1
# [17] = target: Gal(a1-3)Gal(b1-4)GlcNAc(b1-2)Man
# Outline: as §1
# [18] = target: Gal(a1-3)Gal(b1-4)GlcNAc(b1-2)Man(a1-3)[Gal(a1-3)Gal(b1-4)GlcNAc(b1-2)Man(a1-6)]Man(b1-4)GlcNAc(b1-4)GlcNAc
# Outline: as §1
# [19] = target: Gal(a1-3)Gal(b1-4)GlcNAc(b1-3)GalNAc
# Outline: as §1
# [20] = target: Gal(a1-3)Gal(b1-4)GlcNAc(b1-6)GalNAc
# Outline: as §1
# [21] = target: Gal(a1-3)Gal(b1-4)[Fuc(a1-3)]GlcNAc
# Outline: as §1
# [22] = target: Gal(a1-3)Gal(b1-4)[Fuc(a1-3)]GlcNAc(b1-2)Man(a1-3)[Gal(a1-3)Gal(b1-4)[Fuc(a1-3)]GlcNAc(b1-2)Man(a1-6)]Man(b1-4)GlcNAc(b1-4)GlcNAc
# Outline: as §1
# Gal(a1-3)GalNAc = target: Gal(a1-3)GalNAc
# Outline: as §1
# [23] = target: Gal(a1-3)[Gal(a1-4)]Gal(b1-4)GlcNAc
# Outline: as §1
# [24] = target: Gal(a1-4)Gal(b1-3)GlcNAc(b1-2)Man(a1-3)[Gal(a1-4)Gal(b1-3)GlcNAc(b1-2)Man(a1-6)]Man(b1-4)GlcNAc(b1-4)GlcNAc
# Outline: as §1
# Gal(a1-4)Gal(b1-4)Glc = target: Gal(a1-4)Gal(b1-4)Glc
# Outline: as §1
# Gal(a1-4)Gal(b1-4)GlcNAc = target: Gal(a1-4)Gal(b1-4)GlcNAc
# Outline: as §1
# [25] = target: Gal(a1-4)Gal(b1-4)GlcNAc(b1-2)Man(a1-3)[Gal(a1-4)Gal(b1-4)GlcNAc(b1-2)Man(a1-6)]Man(b1-4)GlcNAc(b1-4)GlcNAc
# Outline: as §1
# [26] = target: Gal(a1-4)Gal(b1-4)GlcNAc(b1-3)Gal(b1-4)Glc
# Outline: as §1
# Gal(a1-4)GlcNAc = target: Gal(a1-4)GlcNAc
# Outline: as §1
# Gal(a1-6)Glc = target: Gal(a1-6)Glc
# Outline: as §1
binder,measurement,setting,value
B1,glycan array binding signal (z-score),[1],-0.561
same,glycan array binding signal (z-score),[2],-0.795
same,glycan array binding signal (z-score),[3],-0.106
same,glycan array binding signal (z-score),[4],-0.328
same,glycan array binding signal (z-score),[5],-0.59
same,glycan array binding signal (z-score),[6],0.465
same,glycan array binding signal (z-score),[7],-0.297
same,glycan array binding signal (z-score),[8],-0.588
same,glycan array binding signal (z-score),[9],-0.018
same,glycan array binding signal (z-score),[10],-0.675
same,glycan array binding signal (z-score),[11],-0.739
same,glycan array binding signal (z-score),Fuc(a1-4)GlcNAc,-0.589
same,glycan array binding signal (z-score),Fuc(b1-3)GlcNAc,-0.837
same,glycan array binding signal (z-score),Gal(a1-2)Gal,-0.45
same,glycan array binding signal (z-score),Gal(a1-3)Gal,0.854
same,glycan array binding signal (z-score),Gal(a1-3)Gal(b1-3)GlcNAc,0.018
same,glycan array binding signal (z-score),[12],2.61
same,glycan array binding signal (z-score),[13],0.958
same,glycan array binding signal (z-score),[14],-0.446
same,glycan array binding signal (z-score),[15],0.449
same,glycan array binding signal (z-score),[16],2.27
same,glycan array binding signal (z-score),Gal(a1-3)Gal(b1-4)Glc,0.824
same,glycan array binding signal (z-score),Gal(a1-3)Gal(b1-4)GlcNAc,0.823
same,glycan array binding signal (z-score),[17],-0.58
same,glycan array binding signal (z-score),[18],1.17
same,glycan array binding signal (z-score),[19],0.812
same,glycan array binding signal (z-score),[20],-0.492
same,glycan array binding signal (z-score),[21],-0.54
same,glycan array binding signal (z-score),[22],0.615
same,glycan array binding signal (z-score),Gal(a1-3)GalNAc,-0.793
same,glycan array binding signal (z-score),[23],2.02
same,glycan array binding signal (z-score),[24],0.06
same,glycan array binding signal (z-score),Gal(a1-4)Gal(b1-4)Glc,1.96
same,glycan array binding signal (z-score),Gal(a1-4)Gal(b1-4)GlcNAc,0.384
same,glycan array binding signal (z-score),[25],2.17
same,glycan array binding signal (z-score),[26],-0.367
same,glycan array binding signal (z-score),Gal(a1-4)GlcNAc,-0.705
same,glycan array binding signal (z-score),Gal(a1-6)Glc,-0.466

# 2 entries picked at random from those above, as already listed:
binder,measurement,setting,value
B1,glycan array binding signal (z-score),Gal(a1-3)Gal(b1-3)GlcNAc,0.018
same,glycan array binding signal (z-score),Fuc(b1-3)GlcNAc,-0.837
